## Library screen at single concentrations

The chains behind the UniProt entries cited, without tags or fusion partners. Residues count along the entry.
UniProt Q4DA54, 1-478: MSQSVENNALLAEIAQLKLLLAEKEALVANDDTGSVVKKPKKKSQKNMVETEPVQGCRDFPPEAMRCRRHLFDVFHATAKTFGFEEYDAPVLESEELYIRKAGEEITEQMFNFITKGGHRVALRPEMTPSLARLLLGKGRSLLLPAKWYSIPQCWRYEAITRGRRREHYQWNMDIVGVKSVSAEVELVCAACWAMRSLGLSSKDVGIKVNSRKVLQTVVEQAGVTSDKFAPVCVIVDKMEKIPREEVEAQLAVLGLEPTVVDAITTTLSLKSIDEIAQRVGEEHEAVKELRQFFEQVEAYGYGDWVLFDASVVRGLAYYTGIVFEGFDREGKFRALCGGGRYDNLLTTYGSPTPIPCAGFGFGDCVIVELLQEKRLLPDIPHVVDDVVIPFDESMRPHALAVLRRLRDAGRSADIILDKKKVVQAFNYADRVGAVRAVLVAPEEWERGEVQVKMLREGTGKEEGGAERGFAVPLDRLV
UniProt P9WNZ1, whole entry: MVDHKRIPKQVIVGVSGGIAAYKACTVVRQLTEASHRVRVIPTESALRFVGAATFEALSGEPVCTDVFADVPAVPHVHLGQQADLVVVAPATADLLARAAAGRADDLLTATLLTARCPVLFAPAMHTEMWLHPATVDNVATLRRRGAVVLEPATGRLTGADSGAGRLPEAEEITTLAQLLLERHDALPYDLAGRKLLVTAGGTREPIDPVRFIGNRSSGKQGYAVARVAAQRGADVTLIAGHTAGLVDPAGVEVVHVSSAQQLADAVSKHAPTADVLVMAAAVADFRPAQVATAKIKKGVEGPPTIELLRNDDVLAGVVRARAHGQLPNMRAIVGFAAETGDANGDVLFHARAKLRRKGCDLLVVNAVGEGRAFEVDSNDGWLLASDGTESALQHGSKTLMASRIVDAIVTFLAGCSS
UniProt P9WPC5, whole entry: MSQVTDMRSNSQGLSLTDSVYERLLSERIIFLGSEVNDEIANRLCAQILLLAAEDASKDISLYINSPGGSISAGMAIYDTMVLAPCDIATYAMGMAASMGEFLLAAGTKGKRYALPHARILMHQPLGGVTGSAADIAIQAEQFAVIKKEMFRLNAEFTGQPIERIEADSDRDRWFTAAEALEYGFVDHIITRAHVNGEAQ
UniProt P9WPC3, whole entry partner: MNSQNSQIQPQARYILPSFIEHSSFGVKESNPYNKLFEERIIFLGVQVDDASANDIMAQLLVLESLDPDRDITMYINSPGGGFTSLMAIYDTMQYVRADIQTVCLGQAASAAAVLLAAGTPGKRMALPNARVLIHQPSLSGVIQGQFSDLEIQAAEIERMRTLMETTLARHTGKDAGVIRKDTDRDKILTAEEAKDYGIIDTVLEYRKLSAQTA
UniProt Q8IDJ8, 1-583: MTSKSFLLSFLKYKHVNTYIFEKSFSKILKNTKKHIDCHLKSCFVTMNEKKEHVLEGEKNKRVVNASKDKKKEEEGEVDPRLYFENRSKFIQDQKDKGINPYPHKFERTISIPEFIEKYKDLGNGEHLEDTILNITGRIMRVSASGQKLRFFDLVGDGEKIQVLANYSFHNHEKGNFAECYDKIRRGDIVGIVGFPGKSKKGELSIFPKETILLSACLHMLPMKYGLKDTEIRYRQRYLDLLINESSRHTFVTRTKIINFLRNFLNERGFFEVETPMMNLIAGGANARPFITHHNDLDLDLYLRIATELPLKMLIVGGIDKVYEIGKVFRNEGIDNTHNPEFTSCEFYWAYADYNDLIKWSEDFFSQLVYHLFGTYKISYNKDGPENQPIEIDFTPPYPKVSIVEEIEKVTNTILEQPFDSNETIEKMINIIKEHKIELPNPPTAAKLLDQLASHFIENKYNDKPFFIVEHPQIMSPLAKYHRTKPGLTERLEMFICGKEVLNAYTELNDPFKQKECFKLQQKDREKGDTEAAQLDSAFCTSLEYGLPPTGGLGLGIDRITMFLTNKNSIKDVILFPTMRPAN

Leishmania in macrophages: 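Cell assay of Leishmania donovani living inside macrophages; the read-out is not stated. Tested at 30 µM. The record gives no direction; compounds that gave an IC50 in retests scored well above the rest, so higher reads as stronger inhibition. About 69,000 compounds were tested under these conditions; 1.5% (about 1,000) showed 50% or more at least once.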
TcHisRS: 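Enzyme assay of histidyl-tRNA synthetase; the read-out is not stated. Target: Histidine-tRNA ligase, Trypanosoma cruzi CL Brener (UniProt Q4DA54). Compounds at 30 µM. The record gives no direction; compounds that gave an IC50 in retests scored well above the rest, so higher reads as stronger inhibition. Of about 69,000 compounds tested this way, about 31 (0.045%) reached 50% or more in at least one test.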
CoaBC: 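Enzyme assay of CoaBC with a phosphate dye (Biomol Green) read at 650 nm. Target: Coenzyme A biosynthesis protein CoaBC, Mycobacterium tuberculosis (UniProt P9WNZ1). Concentration: 30 µM. Higher reads as stronger inhibition, judged from the few compounds that gave an IC50. Most strong results did not repeat in a second test. About 67,000 compounds were tested under these conditions; 0.06% (about 40) showed 50% or more at least once.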
ClpP1P2: 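Protease assay of ClpP1P2, read by the AMC dye that it sets free. Target: ClpP1P2, Mycobacterium tuberculosis (UniProt P9WPC5 and UniProt P9WPC3). Compounds at 50 µM. Higher reads as stronger inhibition, judged from the few compounds that gave an IC50. Most other retested compounds had strongly negative values. About 69,000 compounds were tested under these conditions; 0.015% (about 10) showed 50% or more at least once.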
PfKRS1: 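Lysine-tRNA ligase, Plasmodium falciparum 3D7 (UniProt Q8IDJ8). Enzyme assay of the cytosolic lysyl-tRNA synthetase in 384-well plates, read by luminescence. Compounds at 30 µM. Direction is inferred from only a few compounds that gave an IC50; most scored high, so higher reads as stronger inhibition. Of about 69,000 compounds tested this way, about 49 (0.071%) reached 50% or more in at least one test.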

The filed quantity is “Percent Effect” (%). The controls that fix the scale are not given in the record; negative values are as filed. This is an unselected part of the compounds tested. A dash means the value is not listed here; it may have been measured.

| structure | Leishmania in macrophages | TcHisRS | CoaBC | ClpP1P2 | PfKRS1 |
|---|---|---|---|---|---|
| `Cc1ccc(NC2CCN(C(=O)c3cccc4ncccc34)CC2)nn1` | -0.9583 | 5.66 | -0.1304 | -0.7328 | 6.783 |
| `COCCCC1(C(=O)O)CCCN(C(=O)c2ccc(C(C)C)[nH]c2=O)C1` (centres undefined) | 14.21 | 4.598 | 8 | -0.5351 | 1.466 |
| `COc1cccc(C2CCCN2C(=O)NCCCn2cccn2)c1` (centres undefined) | 9.905 | -1.667 | 9.504 | 9.907 | 6.953 |
| `CCn1ccnc1CN(C)Cc1nc(Cc2cccc(F)c2)no1` | -32.75 | -2.463 | 0 | -14.13 | 1.399 |
| `COCCN(C)C[C@H]1CC[C@@H](Cc2ccc3c(cnn3C)c2)O1` | -10.67 | 1.478 | 3.226 | -6.837 | 1.399 |
| `CC(C)Oc1ncccc1CNC(=O)c1ccc(=O)[nH]n1` | -6.71 | 4.942 | 5.704 | -15.13 | -0.5576 |
| `CCN(CC(=O)Nc1cc(Cl)ccc1C)C(=O)c1cnccn1` | 0.6901 | 3.982 | -7.944 | -1.891 | 4.211 |
| `Cc1occc1C(=O)N1CC[C@@H]2[C@@H](CO[C@H]2CNS(C)(=O)=O)C1` | - | 5.882 | 5.212 | -14.27 | 9.559 |
| `[H][C@@]12CS(=O)(=O)C[C@]1([H])N(Cc1ccc(C)c(C)c1)CCN2C(=O)C1CCC1` | 9.198 | - | - | - | - |
| `CN(C)c1ccc(C(=O)N2Cc3cnc(C(C)(C)C)nc3C2)cc1` | 12.23 | 5.102 | -2.545 | -9.099 | 5.975 |
| `COCc1cc(NCC(F)(F)F)n2nccc2n1` | -44.46 | -3.659 | -0.1266 | 3.626 | -1.024 |
| `COc1ccc(OCc2cc(C(=O)N3CCSCC3)n[nH]2)c(Cl)c1` | -17.67 | 0.8333 | -1.053 | -11.25 | 3.605 |
| `COc1c(CNC2CCN(CC(=O)NC3CC3)CC2)c(C)nn1C` | 14.23 | 0 | 9.524 | -0.6043 | 7.568 |
| `CC(C)n1cc(CN2CCCN(C(=O)C3CCCN3C)CC2)cn1` (centres undefined) | 22.18 | 1.163 | 17.32 | -10.25 | 0.5243 |
| `CCc1ccc(C(=O)NC2CCN(c3cnn(C)c3)C2=O)o1` (centres undefined) | 15.42 | 1.695 | -7.93 | -4.161 | 2.545 |
| `CC(C)c1cc(C(=O)N(Cc2ccncc2)CC2CCCO2)no1` (centres undefined) | 38.43 | 2.469 | 1.84 | -5.389 | 2.795 |
| `CS(=O)(=O)N[C@@H]1CN(C(=O)c2ccccn2)C[C@@H]2CCCO[C@@H]21` | - | 10.92 | 9.533 | 5.172 | -1.56 |
| `Cc1nc2c(N3CCC(O)(Cn4ccnc4)CC3)ncnc2o1` | 1.576 | 4.255 | -1.205 | -1.498 | 7.544 |
| `CCOc1nnc(CN(CC)CC(=O)NC(C)C)s1` | 42.27 | 4.04 | -1.347 | -4.435 | -2.135 |
| `CNC(=O)NC(=O)Cn1cc(-c2ccccc2)cn1` | 26.48 | 4.887 | 8.094 | 8.847 | 1.282 |
| `C[C@@H](NC(=O)c1cccnc1)c1onc(-c2ccccc2)c1C(=O)O` | 21.31 | 0.4975 | -16.31 | -2.383 | 0.7183 |
| `CC(C)Oc1cccc(CN(C)C(=O)Cc2ccon2)c1` | 17.7 | -1.724 | 1.984 | 14.85 | -0.06849 |
| `CC(C)N1C[C@@H]2CN(C(=O)NCc3ccccc3)CCC[C@]2(C(=O)O)C1` | - | 5.747 | 0.6148 | -0.3273 | 4.423 |
| `[H][C@@]12CCN(C[C@@H]1CC)[C@@H](CNC(=O)Nc1cccc(C#N)c1)C2` | -23.46 | - | - | - | - |
| `CCOCC(=O)NCCc1nc(C2CC2)cc(C(F)(F)F)n1` | -7.649 | 11 | 1.211 | -7.263 | -0.292 |
| `O=C(Cn1ccc(=O)[nH]c1=O)NCC1Cc2ccccc2O1` (centres undefined) | 15.7 | -4.211 | -1.992 | 1.079 | 4.238 |
| `CCCNC(=O)CNc1ccc(C(=O)N2CCCCC2C)cc1C` (centres undefined) | -5.368 | 1.527 | -3.133 | -0.9903 | 0.2666 |
| `[O-][S+](CCN1CCc2[nH]nc(C(F)(F)F)c2C1)c1ccccc1` (centres undefined) | 11.93 | 7.563 | 2.016 | -3.808 | 5.939 |
| `CN(C)S(=O)(=O)N1CC[C@H]2OCC[C@@]2(COc2cccnc2)C1` | - | -1.149 | 3.87 | 1.923 | -1.323 |
| `Cc1ccnc(C2CCCN2C(=O)c2cnccn2)n1` (centres undefined) | 3.931 | 1.498 | 3.841 | -0.6542 | 2.381 |
| `Cc1nn(C)c(C)c1C1CCCN1C(=O)c1cc[nH]n1` (centres undefined) | -22.84 | 0.3759 | 5.222 | 4.197 | 4.089 |
| `[H][C@]12CCN(C(C)=O)CC[C@@]1([H])S(=O)(=O)N(CC)C2` | -19.69 | - | - | - | - |
| `CN1CC[C@H]2CN(C(=O)COCc3nc4cc(F)ccc4[nH]3)C[C@H]21` | - | 0 | -0.6053 | 14 | 0.02298 |
| `CN(C)C(=O)N1CCN(C(=O)CCc2ccccc2)[C@H]2CS(=O)(=O)C[C@H]21` | - | 1.667 | -4.051 | 4.744 | 1.619 |
| `CC1Cn2c(nc3c2c(=O)[nH]c(=O)n3C)O1` (centres undefined) | 12.56 | 2.273 | -9.198 | 33.44 | 4.041 |
| `Cc1ccn(C)c(=O)c1NC(=O)N(C)Cc1cccc(OC(C)C)c1` | 6.468 | 7.143 | 5.283 | -10.41 | 0.5734 |
| `O=C(Nc1cc(F)ccc1OCC1CCCO1)c1ccc(O)nc1` (centres undefined) | 7.534 | -3.396 | 4.615 | 16.82 | 7.139 |
| `COCc1noc(-c2ccc(N(C)Cc3ccc(C)o3)nc2)n1` | 28.32 | 1.508 | 0.8444 | -14.94 | 5.895 |
| `CCc1cc(NCCc2cccnc2)n2nc(C)c(C)c2n1` | 12.68 | -0.8333 | 10.74 | -0.1513 | -0.6176 |
| `Cn1cc(N2CC3(CCN(S(C)(=O)=O)C3)CC2=O)cn1` (centres undefined) | -4.422 | 2.488 | -2.258 | -11.25 | -0.06083 |
| `CCN(C)S(=O)(=O)NCC1CCN(Cc2ccccc2C)CC1` | 19.75 | 3.017 | 3.676 | -15.58 | 1.063 |
| `CC(C)c1nccn1-c1cncc(C2CCCN2Cc2cccnc2)n1` (centres undefined) | 13.78 | -3.846 | 5.463 | -1.337 | 2.107 |
| `C[C@H](CCO)NS(=O)(=O)c1ccc(Br)cn1` | 16.63 | 2.521 | 0 | -8.562 | 4.984 |
| `CCc1nccc(CN2CCC(CNC(=O)c3occc3C)C2)n1` (centres undefined) | -1.919 | 0.5025 | 3.016 | -7.524 | 8.224 |
| `Cc1ccc(C(=O)Nc2nnc(CC(C)C)s2)c(-n2cnnn2)c1C` | -12.45 | 4.95 | 1.687 | 26.82 | -2.769 |
| `CN1CCCN(c2nccc(-c3cc(C(=O)O)ccn3)n2)CC1` | -4.547 | 6.329 | 0.2404 | -4.82 | 1.948 |
| `CN(C)C(=O)Cn1cc(C(=O)NCCc2ccc(C(F)(F)F)cc2)nn1` | 20.32 | 0.8772 | 4.971 | 16.88 | -2.835 |
| `CC(O)CN1CCN(Cc2csc(-c3cnn(C)c3)n2)CC1` (centres undefined) | 28.33 | 5.325 | 4.183 | -18.58 | 1.381 |
| `Cc1cc(NC(=O)CN2CCCC2Cn2nc(C)nc2C)on1` (centres undefined) | 15.02 | 4.046 | 2.216 | -10.1 | 0.3704 |
| `O=C(C1CCC2(CCN(c3ncccn3)CC2)CO1)N1CCCC1` (centres undefined) | 8.019 | 5.747 | -14.05 | -1.365 | 4.495 |
| `CCN(CC)S(=O)(=O)N1CCC(c2c(C(N)=O)sc3ccccc23)C1` (centres undefined) | -15.37 | 5.747 | -1.214 | -13.83 | 1.058 |
| `CCC(C)(C)c1cc(-c2c(C)nn(CCO)c2C)c(C#N)c(N)n1` | 1.631 | -0.431 | 2.408 | -14.2 | 4.903 |
| `COc1cc(CNC(=O)NCCCF)cc(Br)c1OC` | -5.026 | 4.564 | 8.036 | -13.96 | -0.06674 |
| `CCN(CC)C(=O)C1CCN(c2ccc(Cl)cc2C#N)CC1` | -1.678 | 1.554 | 2.132 | -42.18 | 0.8191 |
| `COc1ccc(NC(=O)NCC(O)c2ccccc2F)c(OC)c1` (centres undefined) | -8.304 | -2.579 | 5.093 | 27.74 | 0 |
| `CN(C(=O)COc1ccc(F)cc1)[C@@H]1CS(=O)(=O)C[C@H]1O` | -26.83 | 6.931 | -2.447 | -9.925 | 7.114 |
| `Cc1cnccc1N1CCN(c2nccc(CCC(F)(F)F)n2)CC1` | -6.284 | 6.145 | -0.4032 | 6.095 | 1.609 |
| `CC(=O)N1CCn2c(-c3cccc(F)c3)cnc2C12CCNCC2` | - | 4.598 | 6.762 | -0.4326 | 6.549 |
| `Cc1ncc2c(n1)C1(CCN(C(=O)C3CC3)CC1)OCC2` | - | 1.515 | -6.165 | -15.5 | 1.712 |
| `CN(C)Cc1nnc2n1CCN(Cc1cccnc1)C2` | 5.109 | 4.902 | 0 | -5.89 | -0.9274 |

For reference, 7 entries once more:

{"structure": "CN(C)C(=O)Cn1cc(C(=O)NCCc2ccc(C(F)(F)F)cc2)nn1", "Leishmania in macrophages": 20.32, "TcHisRS": 0.8772, "CoaBC": 4.971, "ClpP1P2": 16.88, "PfKRS1": -2.835}
{"structure": "CC(C)c1cc(C(=O)N(Cc2ccncc2)CC2CCCO2)no1", "stereo": "centres undefined", "Leishmania in macrophages": 38.43, "TcHisRS": 2.469, "CoaBC": 1.84, "ClpP1P2": -5.389, "PfKRS1": 2.795}
{"structure": "CC(C)Oc1ncccc1CNC(=O)c1ccc(=O)[nH]n1", "Leishmania in macrophages": -6.71, "TcHisRS": 4.942, "CoaBC": 5.704, "ClpP1P2": -15.13, "PfKRS1": -0.5576}
{"structure": "CN(C)C(=O)N1CCN(C(=O)CCc2ccccc2)[C@H]2CS(=O)(=O)C[C@H]21", "TcHisRS": 1.667, "CoaBC": -4.051, "ClpP1P2": 4.744, "PfKRS1": 1.619}
{"structure": "CCCNC(=O)CNc1ccc(C(=O)N2CCCCC2C)cc1C", "stereo": "centres undefined", "Leishmania in macrophages": -5.368, "TcHisRS": 1.527, "CoaBC": -3.133, "ClpP1P2": -0.9903, "PfKRS1": 0.2666}
{"structure": "Cc1occc1C(=O)N1CC[C@@H]2[C@@H](CO[C@H]2CNS(C)(=O)=O)C1", "TcHisRS": 5.882, "CoaBC": 5.212, "ClpP1P2": -14.27, "PfKRS1": 9.559}
{"structure": "Cc1cnccc1N1CCN(c2nccc(CCC(F)(F)F)n2)CC1", "Leishmania in macrophages": -6.284, "TcHisRS": 6.145, "CoaBC": -0.4032, "ClpP1P2": 6.095, "PfKRS1": 1.609}

Source: ChEMBL document CHEMBL3988442, “University of Dundee, Small-Polar-MMV Screening Library” (2021).